{
  "source": "patent US20070209950A1",
  "about": "“METHODS AND DEVICES FOR THE DETECTION AND MEASUREMENT OF FREE METALS IN FLUIDS AND METHODS FOR DIAGNOSING METAL-RELATED DISEASES AND FOR DETERMINING PHARMACOLOGIC DOSING REGIMENS” (priority 2006, published 2007)",
  "origin": "cited, not measured here",
  "biological_target": "copper dependent enzymes",
  "conditions": "many copper dependent enzymes, typical order of magnitude; read-out: Kd for copper binding; cited from earlier work",
  "note": "At least one compound was matched to its structure with a doubt left.",
  "data": [
    {"molecule": "[Cu]", "note": "[copper]", "values": [
      {"measurement": "Kd", "result": "~0.01", "unit": "nM"}
    ]}
  ]
}
